This assay has as its target Smad3 (human (endogenous in CCD-18Co)), P84022. Put plainly: co-IP; CCD-18Co cells treated with 0.1 or 0.5 mM metformin and/or 2 ng/ml TGF-β1 for 48 h; soluble lysates in CO-IP buffer incubated with anti-Smad3 antibody overnight at 4°C, Protein A or G beads 4 h; TβRI detected by western blot. The following applies: remark: other sources report otherwise.

No constants are given. Whether binding was seen depends on the method and setting. Binding seen in cells or lysates may run through a third protein. Some entries that bind do so weakly or less than the wild type.

B1: Transforming growth factor-beta receptor I, P36897 34-503 (receptor)
chain: LQCFCHLCTKDNFTCVTDGLCFVSVTETTDKVIHNSMCIAEIDLIPRDRPFVCAPSSKTGSVTTTYCCNQDHCNKIELPTTVKSSPGLGPVELAAVIAGPVCFVCISLMLMVYICHNRTVIHHRVPNEEDPSLDRPFISEGTTLKDLIYDMTTSGSGSGLPLLVQRTIARTIVLQESIGKGRFGEVWRGKWRGEEVAVKIFSSREERSWFREAEIYQTVMLRHENILGFIAADNKDNGTWTQLWLVSDYHEHGSLFDYLNRYTVTVEGMIKLALSTASGLAHLHMEIVGTQGKPAIAHRDLKSKNILVKKNGTCCIADLGLAVRHDSATDTIDIAPNHRVGTKRYMAPEVLDDSINMKHFESFKRADIYAMGLVFWEIARRCSIGGIHEDYQLPYYDLVPSDPSVEEMRKVVCEQKLRPNIPNRWQSCEALRVMAKIMRECWYANGAARLTALRIKKTLSQLSQQEGIKM
Regarding B1, the binding result is recorded as “binds”.

For the origin of these results see publication PMC9136141.
